No constants are given. Whether binding was seen depends on the method and setting. In cells and extracts the contact can be indirect. Some binding calls cover weakened binding; strength is not graded here. For part of these data: Tags and fused reporters may be left off the sequences shown.
Columns and labels:
[1] = target: T1, S-tagged TRAF1 (pCEBZ-TRAF1-S) (UniProt Q13077); experiment: co-IP
T1 sequence: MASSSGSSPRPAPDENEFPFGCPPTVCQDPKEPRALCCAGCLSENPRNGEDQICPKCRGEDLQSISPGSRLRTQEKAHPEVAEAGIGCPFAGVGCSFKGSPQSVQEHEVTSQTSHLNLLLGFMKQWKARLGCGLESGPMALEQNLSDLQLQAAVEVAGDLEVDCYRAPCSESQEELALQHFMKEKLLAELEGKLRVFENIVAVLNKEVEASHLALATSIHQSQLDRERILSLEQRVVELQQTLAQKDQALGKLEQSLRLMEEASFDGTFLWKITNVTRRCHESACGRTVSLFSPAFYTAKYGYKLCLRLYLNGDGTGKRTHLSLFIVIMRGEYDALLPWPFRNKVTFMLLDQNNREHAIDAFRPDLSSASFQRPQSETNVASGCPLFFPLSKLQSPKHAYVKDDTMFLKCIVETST

By UniProt entry, the sequences of proteins in these tests, tags left out. Where a name states a change or a piece, a line headed by the entry shows the natural chain unless it says otherwise. Chains listed by the source or under a name are the forms on record and can include a tag or linker. Residues count along the entry.
UniProt Q2HR73: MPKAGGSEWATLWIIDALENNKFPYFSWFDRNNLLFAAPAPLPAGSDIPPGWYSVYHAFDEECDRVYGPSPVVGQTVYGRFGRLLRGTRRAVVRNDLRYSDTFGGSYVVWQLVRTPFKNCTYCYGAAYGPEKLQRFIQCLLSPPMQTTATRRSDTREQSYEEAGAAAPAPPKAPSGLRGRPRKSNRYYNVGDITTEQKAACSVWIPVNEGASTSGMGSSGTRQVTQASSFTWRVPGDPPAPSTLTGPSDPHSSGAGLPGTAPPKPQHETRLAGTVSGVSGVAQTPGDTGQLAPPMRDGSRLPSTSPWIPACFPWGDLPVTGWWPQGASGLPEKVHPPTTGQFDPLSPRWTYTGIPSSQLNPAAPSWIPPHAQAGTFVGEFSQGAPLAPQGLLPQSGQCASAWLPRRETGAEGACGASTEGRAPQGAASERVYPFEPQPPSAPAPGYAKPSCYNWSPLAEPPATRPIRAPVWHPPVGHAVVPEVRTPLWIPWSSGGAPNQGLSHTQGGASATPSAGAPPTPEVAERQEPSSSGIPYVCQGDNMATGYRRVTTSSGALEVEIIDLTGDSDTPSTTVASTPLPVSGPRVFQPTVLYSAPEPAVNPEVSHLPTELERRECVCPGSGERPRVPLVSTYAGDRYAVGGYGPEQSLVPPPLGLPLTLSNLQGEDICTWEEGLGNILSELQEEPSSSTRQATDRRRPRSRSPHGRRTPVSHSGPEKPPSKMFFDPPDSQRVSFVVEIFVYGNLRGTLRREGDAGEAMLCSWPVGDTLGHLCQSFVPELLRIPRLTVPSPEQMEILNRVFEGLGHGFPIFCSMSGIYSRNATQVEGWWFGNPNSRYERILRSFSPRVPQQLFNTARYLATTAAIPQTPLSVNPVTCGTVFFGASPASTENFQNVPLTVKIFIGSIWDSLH
UniProt Q93009: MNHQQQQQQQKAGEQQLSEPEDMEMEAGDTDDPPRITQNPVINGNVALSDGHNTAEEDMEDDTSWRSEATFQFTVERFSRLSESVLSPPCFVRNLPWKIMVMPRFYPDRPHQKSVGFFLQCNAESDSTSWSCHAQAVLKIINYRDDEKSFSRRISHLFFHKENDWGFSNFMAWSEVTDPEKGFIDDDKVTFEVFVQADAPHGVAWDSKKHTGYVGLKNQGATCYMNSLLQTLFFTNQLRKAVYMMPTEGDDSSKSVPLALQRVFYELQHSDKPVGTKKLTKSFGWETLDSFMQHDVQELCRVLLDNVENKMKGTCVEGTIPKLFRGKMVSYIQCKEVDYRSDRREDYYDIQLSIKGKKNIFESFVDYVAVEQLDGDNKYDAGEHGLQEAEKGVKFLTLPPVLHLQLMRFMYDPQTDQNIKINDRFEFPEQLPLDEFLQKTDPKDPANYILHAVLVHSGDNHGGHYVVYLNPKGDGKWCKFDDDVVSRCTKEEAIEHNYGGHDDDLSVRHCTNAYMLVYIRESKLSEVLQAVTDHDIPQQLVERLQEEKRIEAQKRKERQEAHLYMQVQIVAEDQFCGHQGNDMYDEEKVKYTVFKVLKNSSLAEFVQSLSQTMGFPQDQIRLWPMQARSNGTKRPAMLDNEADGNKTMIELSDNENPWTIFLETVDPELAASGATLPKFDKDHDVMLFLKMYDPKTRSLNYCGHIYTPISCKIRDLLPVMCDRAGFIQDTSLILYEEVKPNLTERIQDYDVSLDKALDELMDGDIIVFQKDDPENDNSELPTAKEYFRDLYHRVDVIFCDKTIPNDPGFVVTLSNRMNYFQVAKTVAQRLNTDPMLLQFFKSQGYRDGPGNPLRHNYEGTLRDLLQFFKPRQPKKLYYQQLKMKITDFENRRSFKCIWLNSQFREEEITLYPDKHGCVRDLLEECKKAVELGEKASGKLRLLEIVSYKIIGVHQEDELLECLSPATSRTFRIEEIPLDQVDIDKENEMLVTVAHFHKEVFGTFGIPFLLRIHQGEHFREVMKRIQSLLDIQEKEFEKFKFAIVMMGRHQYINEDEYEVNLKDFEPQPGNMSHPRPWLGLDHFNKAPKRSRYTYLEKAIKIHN
His6-linked USP7 residues 1 to 207 (N-terminal domain) (Q93009-3, form named): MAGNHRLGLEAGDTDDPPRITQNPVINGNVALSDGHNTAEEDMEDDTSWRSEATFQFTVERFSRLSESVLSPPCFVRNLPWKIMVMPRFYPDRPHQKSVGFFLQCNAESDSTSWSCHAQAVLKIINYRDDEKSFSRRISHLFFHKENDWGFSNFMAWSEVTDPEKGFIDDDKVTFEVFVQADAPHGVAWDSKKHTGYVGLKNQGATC

[2] = target: T2, S-tagged TRAF2 (pCEBZ-TRAF2-S) (UniProt Q12933); experiment: co-IP
T2 sequence: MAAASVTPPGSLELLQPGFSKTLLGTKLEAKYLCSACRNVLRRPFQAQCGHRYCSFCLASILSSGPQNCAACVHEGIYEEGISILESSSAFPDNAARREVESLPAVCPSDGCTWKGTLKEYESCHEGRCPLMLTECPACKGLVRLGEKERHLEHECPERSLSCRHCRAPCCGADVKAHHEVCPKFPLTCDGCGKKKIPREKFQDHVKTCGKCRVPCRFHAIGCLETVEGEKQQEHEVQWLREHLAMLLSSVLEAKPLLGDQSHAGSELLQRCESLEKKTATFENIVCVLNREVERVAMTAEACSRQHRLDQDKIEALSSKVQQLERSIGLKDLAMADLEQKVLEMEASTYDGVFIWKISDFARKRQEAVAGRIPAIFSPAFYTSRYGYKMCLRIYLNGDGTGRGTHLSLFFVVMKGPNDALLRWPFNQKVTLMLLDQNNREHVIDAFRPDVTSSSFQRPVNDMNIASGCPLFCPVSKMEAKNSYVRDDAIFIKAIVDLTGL

[3] = target: vIRF-4-CBD (human herpesvirus 8 (HHV-8)) (UniProt Q2HR73); experiment: pull-down; only the binder purified

endogenous USP7 of HEK293T cells (from UniProt Q93009 1-1102) (enzyme)
binding [1]: binds
binding [2]: binds

His6-linked USP7 residues 1 to 207 (N-terminal domain) (from UniProt Q93009-3 1-207) (domain or fragment)
binding [3]: binds

Source: article PMC6955280
